The supplement of paper PMC10849652
The other results are listed elsewhere or left out. Residues, ends and D or L forms follow the SMILES beside them. *: point of attachment. Cbz = O=C(OCc1ccccc1)*

The chains behind the UniProt entries cited, without tags or fusion partners. Where a name states a change or a piece, a line headed by the entry shows the natural chain unless it says otherwise.
UniProt Q9NX40: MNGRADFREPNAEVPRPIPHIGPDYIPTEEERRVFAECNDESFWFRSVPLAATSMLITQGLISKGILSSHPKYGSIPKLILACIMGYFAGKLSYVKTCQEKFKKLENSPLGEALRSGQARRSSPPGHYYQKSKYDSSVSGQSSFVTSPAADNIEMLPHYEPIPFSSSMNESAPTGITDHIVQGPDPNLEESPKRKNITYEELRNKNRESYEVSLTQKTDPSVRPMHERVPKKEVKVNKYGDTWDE
UniProt Q5SWX8: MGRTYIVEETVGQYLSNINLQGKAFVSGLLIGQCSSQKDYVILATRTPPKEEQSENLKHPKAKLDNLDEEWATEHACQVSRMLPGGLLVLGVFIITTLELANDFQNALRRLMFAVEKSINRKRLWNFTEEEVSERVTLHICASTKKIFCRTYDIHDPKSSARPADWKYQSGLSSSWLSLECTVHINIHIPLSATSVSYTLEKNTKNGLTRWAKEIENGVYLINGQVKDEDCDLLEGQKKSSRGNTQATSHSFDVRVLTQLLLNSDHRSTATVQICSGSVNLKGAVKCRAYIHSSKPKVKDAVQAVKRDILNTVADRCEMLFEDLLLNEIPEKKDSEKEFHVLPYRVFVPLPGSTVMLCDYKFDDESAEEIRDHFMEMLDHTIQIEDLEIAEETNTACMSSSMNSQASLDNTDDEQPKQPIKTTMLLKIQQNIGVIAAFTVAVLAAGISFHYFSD
UniProt P53384: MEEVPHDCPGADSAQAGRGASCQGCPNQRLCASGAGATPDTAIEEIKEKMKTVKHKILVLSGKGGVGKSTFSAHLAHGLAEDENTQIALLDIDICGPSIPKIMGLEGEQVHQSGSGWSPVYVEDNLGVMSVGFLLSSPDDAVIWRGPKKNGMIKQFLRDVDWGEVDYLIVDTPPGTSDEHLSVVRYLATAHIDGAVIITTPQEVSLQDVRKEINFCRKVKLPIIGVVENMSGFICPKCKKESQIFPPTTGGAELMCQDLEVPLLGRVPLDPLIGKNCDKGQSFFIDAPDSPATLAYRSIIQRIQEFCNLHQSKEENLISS
UniProt Q96MG7: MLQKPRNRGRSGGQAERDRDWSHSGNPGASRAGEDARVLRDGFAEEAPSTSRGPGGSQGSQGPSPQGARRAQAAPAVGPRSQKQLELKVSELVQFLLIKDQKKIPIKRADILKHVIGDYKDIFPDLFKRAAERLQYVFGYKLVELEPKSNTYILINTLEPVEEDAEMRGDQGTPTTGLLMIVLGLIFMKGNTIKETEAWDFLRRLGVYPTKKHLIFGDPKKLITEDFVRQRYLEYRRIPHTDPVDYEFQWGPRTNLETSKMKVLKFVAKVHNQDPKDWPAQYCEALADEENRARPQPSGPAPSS
UniProt O60502: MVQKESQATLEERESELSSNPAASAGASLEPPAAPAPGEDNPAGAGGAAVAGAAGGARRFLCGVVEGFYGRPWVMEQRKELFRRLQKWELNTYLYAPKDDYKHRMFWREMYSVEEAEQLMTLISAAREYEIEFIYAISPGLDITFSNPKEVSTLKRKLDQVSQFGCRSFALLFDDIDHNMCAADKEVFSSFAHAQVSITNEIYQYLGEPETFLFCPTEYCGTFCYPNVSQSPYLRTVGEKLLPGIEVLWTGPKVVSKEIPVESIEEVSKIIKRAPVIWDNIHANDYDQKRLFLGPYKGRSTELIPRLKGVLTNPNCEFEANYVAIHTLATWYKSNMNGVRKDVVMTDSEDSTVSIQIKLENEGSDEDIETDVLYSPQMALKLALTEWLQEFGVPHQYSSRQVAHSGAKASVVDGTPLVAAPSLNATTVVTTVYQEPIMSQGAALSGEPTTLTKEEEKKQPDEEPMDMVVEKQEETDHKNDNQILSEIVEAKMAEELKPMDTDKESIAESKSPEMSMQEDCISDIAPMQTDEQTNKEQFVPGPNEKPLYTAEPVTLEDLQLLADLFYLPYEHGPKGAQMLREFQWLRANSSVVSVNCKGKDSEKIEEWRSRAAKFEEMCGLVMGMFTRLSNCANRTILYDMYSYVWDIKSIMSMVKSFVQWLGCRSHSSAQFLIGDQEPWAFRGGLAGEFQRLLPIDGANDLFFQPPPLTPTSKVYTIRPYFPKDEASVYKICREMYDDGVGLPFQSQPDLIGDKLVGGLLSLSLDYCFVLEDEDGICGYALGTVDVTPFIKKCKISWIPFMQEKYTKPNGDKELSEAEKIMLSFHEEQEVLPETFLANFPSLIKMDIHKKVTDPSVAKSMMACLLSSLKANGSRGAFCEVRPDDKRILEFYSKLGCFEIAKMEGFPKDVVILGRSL
UniProt Q5SRE5: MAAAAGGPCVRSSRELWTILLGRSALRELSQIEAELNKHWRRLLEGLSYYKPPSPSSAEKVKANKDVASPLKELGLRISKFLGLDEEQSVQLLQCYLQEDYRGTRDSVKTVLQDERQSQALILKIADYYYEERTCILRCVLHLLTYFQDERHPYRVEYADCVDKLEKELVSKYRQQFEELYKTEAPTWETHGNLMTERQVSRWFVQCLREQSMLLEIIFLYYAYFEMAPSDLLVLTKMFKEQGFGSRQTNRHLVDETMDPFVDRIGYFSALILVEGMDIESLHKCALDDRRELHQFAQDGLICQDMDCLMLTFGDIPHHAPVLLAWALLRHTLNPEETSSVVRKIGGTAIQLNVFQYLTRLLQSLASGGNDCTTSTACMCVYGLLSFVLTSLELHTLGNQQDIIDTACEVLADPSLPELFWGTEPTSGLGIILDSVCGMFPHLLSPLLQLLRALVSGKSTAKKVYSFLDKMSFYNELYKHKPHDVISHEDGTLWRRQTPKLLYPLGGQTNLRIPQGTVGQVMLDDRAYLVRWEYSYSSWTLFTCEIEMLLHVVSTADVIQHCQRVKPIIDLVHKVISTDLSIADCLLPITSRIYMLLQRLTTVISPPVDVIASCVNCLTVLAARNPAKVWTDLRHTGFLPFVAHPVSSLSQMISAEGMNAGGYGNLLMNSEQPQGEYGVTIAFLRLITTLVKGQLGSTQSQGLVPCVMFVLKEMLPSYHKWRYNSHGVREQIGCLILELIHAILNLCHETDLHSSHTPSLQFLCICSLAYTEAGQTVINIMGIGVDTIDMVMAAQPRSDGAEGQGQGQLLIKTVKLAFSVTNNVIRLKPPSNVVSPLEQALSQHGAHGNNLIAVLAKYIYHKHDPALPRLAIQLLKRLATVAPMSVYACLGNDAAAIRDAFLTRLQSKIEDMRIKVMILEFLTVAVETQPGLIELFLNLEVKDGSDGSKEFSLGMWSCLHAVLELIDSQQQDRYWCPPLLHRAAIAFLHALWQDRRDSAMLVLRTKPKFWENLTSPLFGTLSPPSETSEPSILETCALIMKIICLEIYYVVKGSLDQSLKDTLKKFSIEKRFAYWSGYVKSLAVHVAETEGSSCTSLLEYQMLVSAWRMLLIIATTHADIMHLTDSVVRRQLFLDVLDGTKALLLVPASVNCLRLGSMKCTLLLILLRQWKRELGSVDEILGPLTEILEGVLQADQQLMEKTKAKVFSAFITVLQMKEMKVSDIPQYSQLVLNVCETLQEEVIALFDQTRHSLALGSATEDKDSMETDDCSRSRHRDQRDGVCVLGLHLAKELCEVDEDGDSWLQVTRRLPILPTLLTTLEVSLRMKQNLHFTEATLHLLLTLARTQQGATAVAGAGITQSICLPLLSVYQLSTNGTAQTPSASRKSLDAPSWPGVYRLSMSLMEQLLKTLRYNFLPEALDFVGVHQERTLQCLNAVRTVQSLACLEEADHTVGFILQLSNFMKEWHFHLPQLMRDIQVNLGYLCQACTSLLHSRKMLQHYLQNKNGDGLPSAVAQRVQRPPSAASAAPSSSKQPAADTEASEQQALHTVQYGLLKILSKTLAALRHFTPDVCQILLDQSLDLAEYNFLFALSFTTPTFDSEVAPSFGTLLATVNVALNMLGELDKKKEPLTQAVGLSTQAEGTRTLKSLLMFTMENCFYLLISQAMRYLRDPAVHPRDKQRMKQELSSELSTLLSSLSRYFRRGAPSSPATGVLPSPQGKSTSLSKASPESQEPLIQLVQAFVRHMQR
UniProt Q9BQG2: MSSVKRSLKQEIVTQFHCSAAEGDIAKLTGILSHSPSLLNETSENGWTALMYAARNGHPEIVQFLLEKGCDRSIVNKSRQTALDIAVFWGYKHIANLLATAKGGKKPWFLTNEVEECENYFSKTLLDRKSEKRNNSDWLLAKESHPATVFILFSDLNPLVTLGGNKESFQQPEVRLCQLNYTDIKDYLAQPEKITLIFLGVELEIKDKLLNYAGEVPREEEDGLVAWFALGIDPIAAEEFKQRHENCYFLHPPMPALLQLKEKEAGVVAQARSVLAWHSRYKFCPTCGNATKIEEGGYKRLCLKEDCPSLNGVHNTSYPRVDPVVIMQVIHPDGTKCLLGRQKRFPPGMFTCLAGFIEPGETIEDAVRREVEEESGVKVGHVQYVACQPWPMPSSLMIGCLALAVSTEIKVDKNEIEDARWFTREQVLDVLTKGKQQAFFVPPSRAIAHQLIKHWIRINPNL
UniProt Q96CV9, whole entry, looked up: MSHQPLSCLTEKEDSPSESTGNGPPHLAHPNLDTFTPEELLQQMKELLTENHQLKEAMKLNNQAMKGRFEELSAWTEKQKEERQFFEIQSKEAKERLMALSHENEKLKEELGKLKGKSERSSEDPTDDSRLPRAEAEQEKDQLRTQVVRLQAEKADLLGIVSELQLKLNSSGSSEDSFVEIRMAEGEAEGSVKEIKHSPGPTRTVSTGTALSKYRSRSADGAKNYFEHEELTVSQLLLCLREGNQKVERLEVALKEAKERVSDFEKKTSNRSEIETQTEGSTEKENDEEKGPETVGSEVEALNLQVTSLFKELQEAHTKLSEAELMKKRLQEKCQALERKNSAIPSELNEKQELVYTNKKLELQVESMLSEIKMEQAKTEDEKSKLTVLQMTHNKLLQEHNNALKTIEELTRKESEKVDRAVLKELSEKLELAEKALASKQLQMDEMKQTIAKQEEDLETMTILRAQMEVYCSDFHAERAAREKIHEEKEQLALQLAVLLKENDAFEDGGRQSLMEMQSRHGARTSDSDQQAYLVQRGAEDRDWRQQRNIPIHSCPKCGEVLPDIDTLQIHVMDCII
UniProt P61970, whole entry, looked up: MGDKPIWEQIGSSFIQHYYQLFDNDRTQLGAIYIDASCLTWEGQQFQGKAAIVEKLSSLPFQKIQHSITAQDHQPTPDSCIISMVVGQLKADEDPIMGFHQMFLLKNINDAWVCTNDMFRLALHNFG
UniProt Q8IVD9: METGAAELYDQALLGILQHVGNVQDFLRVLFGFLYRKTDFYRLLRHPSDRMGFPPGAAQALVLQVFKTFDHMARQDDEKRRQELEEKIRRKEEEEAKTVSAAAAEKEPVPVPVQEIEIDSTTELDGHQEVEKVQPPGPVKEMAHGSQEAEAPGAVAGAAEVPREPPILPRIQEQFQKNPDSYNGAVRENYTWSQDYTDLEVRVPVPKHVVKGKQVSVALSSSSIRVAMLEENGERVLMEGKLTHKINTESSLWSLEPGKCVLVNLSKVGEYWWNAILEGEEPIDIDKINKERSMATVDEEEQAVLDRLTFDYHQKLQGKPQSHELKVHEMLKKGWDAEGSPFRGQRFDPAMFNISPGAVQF
UniProt Q9UQ80: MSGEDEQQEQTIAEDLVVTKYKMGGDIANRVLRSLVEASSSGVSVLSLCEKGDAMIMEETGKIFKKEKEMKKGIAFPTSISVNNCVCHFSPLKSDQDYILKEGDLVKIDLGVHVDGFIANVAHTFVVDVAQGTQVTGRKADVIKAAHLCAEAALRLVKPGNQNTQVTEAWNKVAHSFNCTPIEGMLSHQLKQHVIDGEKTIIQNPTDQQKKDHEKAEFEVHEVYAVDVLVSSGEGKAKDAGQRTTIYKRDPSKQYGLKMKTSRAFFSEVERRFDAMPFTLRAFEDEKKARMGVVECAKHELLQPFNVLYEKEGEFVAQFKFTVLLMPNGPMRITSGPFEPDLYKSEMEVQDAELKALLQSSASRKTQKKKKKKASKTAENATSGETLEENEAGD
UniProt Q92882: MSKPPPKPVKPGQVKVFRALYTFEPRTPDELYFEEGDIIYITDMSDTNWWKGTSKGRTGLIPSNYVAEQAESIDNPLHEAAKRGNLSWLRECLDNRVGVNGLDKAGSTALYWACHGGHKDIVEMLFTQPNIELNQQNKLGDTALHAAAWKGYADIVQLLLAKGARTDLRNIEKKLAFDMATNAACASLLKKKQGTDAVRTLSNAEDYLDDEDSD
UniProt Q9NTK5, whole entry, looked up: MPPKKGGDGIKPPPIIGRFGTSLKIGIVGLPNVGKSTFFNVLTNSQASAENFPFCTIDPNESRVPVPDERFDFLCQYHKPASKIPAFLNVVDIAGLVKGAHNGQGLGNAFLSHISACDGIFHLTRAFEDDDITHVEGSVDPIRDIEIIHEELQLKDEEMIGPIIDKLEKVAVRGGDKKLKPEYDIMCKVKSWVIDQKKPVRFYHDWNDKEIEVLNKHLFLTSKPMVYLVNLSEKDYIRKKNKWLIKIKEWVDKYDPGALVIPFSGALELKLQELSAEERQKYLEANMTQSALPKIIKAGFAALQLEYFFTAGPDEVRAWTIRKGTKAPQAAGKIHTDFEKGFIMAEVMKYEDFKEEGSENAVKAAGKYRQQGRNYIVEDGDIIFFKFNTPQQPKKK

Columns and labels:
Assay in all cases: log2 fold change, soluble protein after heating vs DMSO (PISA); higher = thermal stabilisation; K562 cells, 10 uM, 30 min; active = over 0.2 and 3.5 SD of the protein, either way, in both replicates (recomputed)
IRAK-1-4 Inhibitor I = compound: C1COCCN1CCN2C3=CC=CC=C3N=C2NC(=O)C4=CC(=CC=C4)[N+](=O)[O-] [IRAK-1-4 Inhibitor I]
How it was run: (§1)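 Soluble protein was quantified by TMTpro 16plex LC-MS/MS after channel sums were equalised. It was obtained as the supernatant after 21,000xg for 90 min from pooled aliquots of K562 cells (2×10^6 cells/mL, 10 μM compound, 30 min) heated for 3 min across 48°C-58°C and extracted in PBS with 0.5% NP-40 at 4°C. Thermal stability values are relative to control samples and come from duplicates. They are given as log2 fold changes.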

ibrutinib = compound: C=CC(=O)N1CCC[C@@H](n2nc(-c3ccc(Oc4ccccc4)cc3)c3c(N)ncnc32)C1 [ibrutinib]
How it was run: as §1

[1] = compound: CC(=O)c1cnc2ccc(-c3cc(Cl)c(O)c(Cl)c3)nc2c1N[C@H]1CC[C@H](CN(C)C)CC1
How it was run: as §1

ralimetinib = compound: CC(C)(C)Cn1c(N)nc2ccc(-c3[nH]c(C(C)(C)C)nc3-c3ccc(F)cc3)nc21 [ralimetinib]
How it was run: as §1

[2] = compound: CC(C)(O)CC(=O)NCCn1ccc2ncnc(Nc3ccc(Oc4cccc(C(F)(F)F)c4)c(Cl)c3)c21
How it was run: as §1

[3] = compound: CC(C)C1=C2N=C(C=C(N2N=C1)NCC3=CC=CC=C3)NCCCCCCN
How it was run: as §1

[4] = compound: CC(C)C[C@@H](C=O)NC(=O)[C@H](CC(C)C)NC(=O)[C@H](CC(C)C)NC(=O)OCc1ccccc1
How it was run: as §1

pinometostat = compound: CC(C)N(C[C@H]1O[C@@H](n2cnc3c(N)ncnc32)[C@H](O)[C@@H]1O)[C@H]1C[C@@H](CCc2nc3cc(C(C)(C)C)ccc3[nH]2)C1 [pinometostat]
How it was run: as §1

[5] = compound: CC1=C(C(CC(=O)N1)C2=CC=C(C=C2)C(F)(F)F)C(=O)NC3=C(C=C4C(=C3)C=NN4)F
How it was run: as §1

[6] = compound: CC1=C(C2=C(C=C1)C(=O)C3=CC=CC=C3N2CCCN)C
How it was run: as §1

[7] = compound: CC1=C(C=C(C=C1)NC(=O)C2=CC(=CC=C2)C(C)(C)C#N)NC3=CC4=C(C=C3)N=CN(C4=O)C
How it was run: as §1

[8] = compound: CC1=C(C=C(C=C1)NC(=O)C2=CC(=CC=C2)N(C)C)NC(=O)C3=CC=C(C=C3)O
How it was run: as §1

[9] = compound: CC1=CC=C(C=C1)SC2=C3C=C(SC3=CN=C2)C(=O)N
How it was run: as §1

[10] = compound: CC1=NC(=CC=C1)C2=C(N=C(N2)C(C)(C)C)C3=CC4=NC=CN=C4C=C3
How it was run: as §1

Nexturastat A = compound: CCCCN(Cc1ccc(C(=O)NO)cc1)C(=O)Nc1ccccc1 [Nexturastat A]
How it was run: as §1

vemurafenib = compound: CCCS(=O)(=O)Nc1ccc(F)c(C(=O)c2c[nH]c3ncc(-c4ccc(Cl)cc4)cc23)c1F [vemurafenib]
How it was run: as §1

[11] = compound: CCCS(=O)(=O)Nc1ccc(F)c(C(=O)c2c[nH]c3ncc(Cl)cc23)c1F
How it was run: as §1

[12] = compound: CCCc1cc(C)[nH]c(=O)c1CNC(=O)c1cc(-c2ccnc(N3CCN(C)CC3)c2)cc2c1cnn2C(C)C
How it was run: as §1

givinostat = compound: CCN(CC)Cc1ccc2cc(COC(=O)Nc3ccc(C(=O)NO)cc3)ccc2c1 [givinostat]
How it was run: as §1

barasertib = compound: CCN(CCCOc1ccc2c(Nc3cc(CC(=O)Nc4cccc(F)c4)[nH]n3)ncnc2c1)CCOP(=O)(O)O [barasertib]
How it was run: as §1

Measured: log2 fold change

OCIAD1 (UniProt Q9NX40)
inactive: IRAK-1-4 Inhibitor I 0.035 | ibrutinib 0.023 | [1] 0.02 | ralimetinib -0.001 | [2] 0.02 | [3] -0.037 | [4] 0.006 | pinometostat -0.098 | [5] -0.041 | [6] 0.004 | [7] -0.043 | [8] -0.005 | [9] 0.005 | [10] 0.045 | Nexturastat A -0.065 | vemurafenib 0.019 | [11] 0.003 | [12] -0.023 | givinostat 0 | barasertib -0.035

ODR4 (UniProt Q5SWX8)
inactive: IRAK-1-4 Inhibitor I -0.083 | ibrutinib -0.06 | [1] -0.012 | ralimetinib -0.005 | [2] -0.004 | [3] 0.087 | [4] -0.006 | pinometostat 0.045 | [5] -0.038 | [6] 0.093 | [7] -0.054 | [8] -0.03 | [9] 0.015 | [10] -0.027 | Nexturastat A 0.087 | vemurafenib 0.033 | [11] 0.032 | [12] 0.069 | givinostat 0.034 | barasertib 0

NUDT19 (UniProt A8MXV4)
inactive: IRAK-1-4 Inhibitor I 0.011 | ibrutinib -0.019 | [1] 0.048 | ralimetinib -0.047 | [2] 0 | [3] 0.061 | [4] -0.022 | pinometostat -0.074 | [5] -0.025 | [6] -0.028 | [7] -0.014 | [8] 0.02 | [9] 0.008 | [10] 0.003 | Nexturastat A -0.146 | vemurafenib 0.036 | [11] 0.033 | [12] 0.013 | givinostat 0.011 | barasertib 0.007

NUP155 (UniProt O75694)
inactive: IRAK-1-4 Inhibitor I -0.129 | ibrutinib -0.027 | [1] 0.015 | ralimetinib 0.066 | [2] -0.08 | [3] -0.154 | [4] -0.011 | pinometostat -0.043 | [5] -0.031 | [6] 0.04 | [7] 0.099 | [8] -0.027 | [9] 0.038 | [10] 0.107 | Nexturastat A -0.049 | vemurafenib 0.018 | [11] 0.046 | [12] -0.034 | givinostat 0.006 | barasertib 0

NUBP1 (UniProt P53384)
inactive: IRAK-1-4 Inhibitor I 0.098 | ibrutinib -0.046 | [1] -0.067 | ralimetinib -0.118 | [2] -0.094 | [3] -0.057 | [4] -0.051 | pinometostat -0.068 | [5] 0.005 | [6] 0.015 | [7] -0.047 | [8] -0.017 | [9] 0.032 | [10] 0.011 | Nexturastat A -0.221 | vemurafenib 0.051 | [11] 0.007 | [12] 0.01 | givinostat 0.019 | barasertib 0.007

Retrieved one by one from above (2):
NUBP1 (UniProt P53384)
inactive: IRAK-1-4 Inhibitor I 0.098 | ibrutinib -0.046 | [1] -0.067 | ralimetinib -0.118 | [2] -0.094 | [3] -0.057 | [4] -0.051 | pinometostat -0.068 | [5] 0.005 | [6] 0.015 | [7] -0.047 | [8] -0.017 | [9] 0.032 | [10] 0.011 | Nexturastat A -0.221 | vemurafenib 0.051 | [11] 0.007 | [12] 0.01 | givinostat 0.019 | barasertib 0.007

NUDT19 (UniProt A8MXV4)
inactive: IRAK-1-4 Inhibitor I 0.011 | ibrutinib -0.019 | [1] 0.048 | ralimetinib -0.047 | [2] 0 | [3] 0.061 | [4] -0.022 | pinometostat -0.074 | [5] -0.025 | [6] -0.028 | [7] -0.014 | [8] 0.02 | [9] 0.008 | [10] 0.003 | Nexturastat A -0.146 | vemurafenib 0.036 | [11] 0.033 | [12] 0.013 | givinostat 0.011 | barasertib 0.007

(continued)

NT5C (UniProt Q8TCD5)
inactive: IRAK-1-4 Inhibitor I 0.035 | ibrutinib 0.034 | [1] 0.021 | ralimetinib -0.052 | [2] 0.031 | [3] 0.045 | [4] -0.013 | pinometostat -0.027 | [5] 0.03 | [6] 0.011 | [7] -0.027 | [8] 0.025 | [9] -0.019 | [10] -0.02 | Nexturastat A -0.05 | vemurafenib -0.003 | [11] -0.024 | [12] -0.042 | givinostat -0.11 | barasertib -0.011

NSMCE3 (UniProt Q96MG7)
inactive: IRAK-1-4 Inhibitor I 0 | ibrutinib 0 | [1] -0.068 | ralimetinib -0.032 | [2] -0.009 | [3] 0.088 | [4] 0.007 | pinometostat -0.186 | [5] -0.02 | [6] -0.246 | [7] -0.007 | [8] -0.035 | [9] 0.019 | [10] 0.014 | Nexturastat A 0.005 | vemurafenib -0.016 | [11] 0.027 | [12] -0.014 | givinostat 0 | barasertib 0.014

OGA (UniProt O60502)
inactive: IRAK-1-4 Inhibitor I 0.039 | ibrutinib -0.03 | [1] -0.023 | ralimetinib -0.06 | [2] -0.023 | [3] -0.018 | [4] 0.003 | pinometostat -0.022 | [5] 0.011 | [6] 0.033 | [7] -0.032 | [8] -0.002 | [9] 0.005 | [10] 0.044 | Nexturastat A -0.034 | vemurafenib -0.009 | [11] -0.002 | [12] -0.062 | givinostat -0.06 | barasertib 0.012

NUP188 (UniProt Q5SRE5)
inactive: IRAK-1-4 Inhibitor I -0.059 | ibrutinib -0.03 | [1] -0.071 | ralimetinib 0.019 | [2] -0.064 | [3] -0.14 | [4] 0.034 | pinometostat 0.005 | [5] -0.001 | [6] 0.023 | [7] 0.006 | [8] -0.021 | [9] 0.031 | [10] -0.028 | Nexturastat A 0.038 | vemurafenib 0.053 | [11] 0.059 | [12] 0.005 | givinostat 0.012 | barasertib 0.185

NUDT12 (UniProt Q9BQG2)
inactive: IRAK-1-4 Inhibitor I 0.032 | ibrutinib 0.026 | [1] 0.071 | ralimetinib 0.03 | [2] -0.042 | [3] 0.03 | [4] -0.028 | pinometostat -0.049 | [5] -0.039 | [6] 0.065 | [7] -0.026 | [8] -0.062 | [9] 0.003 | [10] 0.019 | Nexturastat A -0.039 | vemurafenib 0.062 | [11] 0.015 | [12] 0.011 | givinostat -0.005 | barasertib 0.026

OPTN (UniProt Q96CV9)
inactive: IRAK-1-4 Inhibitor I -0.046 | ibrutinib 0.013 | [1] -0.016 | ralimetinib 0.021 | [2] 0.012 | [3] -0.195 | [4] -0.081 | pinometostat 0.114 | [5] 0.002 | [6] -0.078 | [7] -0.081 | [8] 0.052 | [9] -0.103 | [10] -0.031 | Nexturastat A -0.189 | vemurafenib 0.083 | [11] -0.08 | [12] -0.043 | givinostat 0.08 | barasertib -0.056

NUTF2 (UniProt P61970)
inactive: IRAK-1-4 Inhibitor I 0.078 | ibrutinib -0.061 | [1] 0 | ralimetinib -0.159 | [2] -0.127 | [3] 0.017 | [4] -0.077 | pinometostat 0.012 | [5] -0.032 | [6] 0.163 | [7] -0.068 | [8] -0.122 | [9] 0.052 | [10] -0.008 | Nexturastat A -0.061 | vemurafenib 0.003 | [11] 0.037 | [12] 0.019 | givinostat -0.234 | barasertib 0.039

NUDCD3 (UniProt Q8IVD9)
inactive: IRAK-1-4 Inhibitor I -0.045 | ibrutinib -0.045 | [1] -0.005 | ralimetinib -0.022 | [2] -0.062 | [3] -0.13 | [4] 0.036 | pinometostat 0.021 | [5] -0.004 | [6] -0.034 | [7] 0.001 | [8] -0.106 | [9] 0.005 | [10] -0.012 | Nexturastat A -0.019 | vemurafenib 0.009 | [11] 0.03 | [12] 0 | givinostat 0.022 | barasertib 0.058

PA2G4 (UniProt Q9UQ80)
inactive: IRAK-1-4 Inhibitor I -0.081 | ibrutinib -0.025 | [1] 0.023 | ralimetinib 0.01 | [2] -0.033 | [3] -0.029 | [4] 0.005 | pinometostat -0.01 | [5] -0.047 | [6] -0.073 | [7] 0.075 | [8] -0.043 | [9] 0.007 | [10] 0.064 | Nexturastat A -0.023 | vemurafenib 0.023 | [11] 0.038 | [12] 0.004 | givinostat -0.022 | barasertib 0.009

OSTF1 (UniProt Q92882)
inactive: IRAK-1-4 Inhibitor I -0.015 | ibrutinib -0.1 | [1] -0.1 | ralimetinib 0.029 | [2] -0.048 | [3] -0.183 | [4] -0.002 | pinometostat 0.056 | [5] 0 | [6] 0.067 | [7] -0.157 | [8] 0.009 | [9] -0.039 | [10] 0.008 | Nexturastat A 0.003 | vemurafenib 0.011 | [11] -0.023 | [12] -0.011 | givinostat 0.052 | barasertib 0.049

OLA1 (UniProt Q9NTK5)
inactive: IRAK-1-4 Inhibitor I 0.04 | ibrutinib -0.008 | [1] -0.019 | ralimetinib -0.058 | [2] -0.056 | [3] 0.032 | [4] 0.023 | pinometostat -0.018 | [5] 0.005 | [6] 0.008 | [7] -0.004 | [8] -0.01 | [9] 0.036 | [10] 0.035 | Nexturastat A -0.099 | vemurafenib 0.022 | [11] 0.068 | [12] -0.015 | givinostat -0.018 | barasertib 0.006
